Here are results for one substance from PMC9882653.

By UniProt entry, the sequences of proteins in these tests, tags left out. Where a name states a change or a piece, a line headed by the entry shows the natural chain unless it says otherwise.
UniProt Q9UM11: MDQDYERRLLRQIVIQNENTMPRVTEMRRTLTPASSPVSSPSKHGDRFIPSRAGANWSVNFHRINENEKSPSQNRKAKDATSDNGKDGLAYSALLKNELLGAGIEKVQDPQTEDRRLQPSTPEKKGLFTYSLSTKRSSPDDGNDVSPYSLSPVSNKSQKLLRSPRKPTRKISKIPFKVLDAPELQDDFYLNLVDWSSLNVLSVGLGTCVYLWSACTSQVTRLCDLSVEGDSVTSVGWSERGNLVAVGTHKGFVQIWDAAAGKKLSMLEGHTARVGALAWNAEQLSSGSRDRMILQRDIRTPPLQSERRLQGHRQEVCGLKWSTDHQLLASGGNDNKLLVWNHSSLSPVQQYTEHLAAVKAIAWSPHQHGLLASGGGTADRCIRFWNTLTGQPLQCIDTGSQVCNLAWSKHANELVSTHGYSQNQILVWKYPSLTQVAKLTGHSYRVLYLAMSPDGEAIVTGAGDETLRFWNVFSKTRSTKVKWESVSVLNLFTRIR
UniProt Q00534: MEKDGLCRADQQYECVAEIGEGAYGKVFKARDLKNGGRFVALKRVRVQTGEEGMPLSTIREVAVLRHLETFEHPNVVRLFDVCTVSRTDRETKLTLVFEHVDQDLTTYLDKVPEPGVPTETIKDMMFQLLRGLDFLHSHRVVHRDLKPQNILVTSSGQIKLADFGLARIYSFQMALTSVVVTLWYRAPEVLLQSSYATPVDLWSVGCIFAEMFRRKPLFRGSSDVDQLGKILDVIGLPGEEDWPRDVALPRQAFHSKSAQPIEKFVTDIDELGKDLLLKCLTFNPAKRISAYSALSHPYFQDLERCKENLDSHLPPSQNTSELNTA

Results are given in words; binding and its absence hold for the method and conditions named. Binding seen in cells or lysates may run through a third protein.

The assay concerns the target HA-CDH1 (wild type) (human) (UniProt Q9UM11). The assay can be described thus: co-IP; 293T cells transfected with indicated constructs for 36 hrs.

As to “CDK6 (from UniProt Q00534 1-326) (enzyme)”, the binding entry is “no binding”.
